Data as given in patent US20200000976A1, “A MEDICAL IMPLANT AND A METHOD OF COATING A MEDICAL IMPLANT” (priority 2016, published 2020).
Some results were stated once for a whole list of compounds, not compound by compound.

Assay: drug elution from implant samples in phosphate buffer saline, quantified by UV-visible spectrophotometry
Format: physicochemical
Details: implant samples without coatings; phosphate buffer saline pH 7.4, shaking, 37 degree C; preliminary results

## Cc1nnc(SCC2=C(C(=O)O)N3C(=O)[C@@H](NC(=O)Cn4cnnn4)[C@H]3SC2)s1 [cefazolin]
  eluted doses (above the MIC): > 0.5 microgram per ml
  time for which eluted doses were above the MIC: 5 to 7 days
